Assay results: PubChem BioAssay AID256 (DTP/NCI, 2004)
The list is a part of this screen's results and no random one: it is rich in T/C values a quarter to a half above the control, in often repeated tests (any T/C) and in doses without a T/C. Other doses and runs of a compound stand elsewhere. T/C is the treated group as % of the vehicle group. Some entries give survivors of the animals treated and no T/C: the source holds a T/C of zero for them, seemingly a mark for toxic or unscored doses. Some doses without a T/C left all or most animals alive at the check, yet need not have been tolerated: survival well below the control is almost never listed, so the zero probably covers shortened survival too. Survivors were counted at the toxicity check, usually on the fifth day, unless a day is given; later deaths do not show. Schedule codes are those of the source, taken here to give the interval after Q, in days (D) or hours (H), and the number of doses after X. Some structures stand for samples that the source files as different forms (salt, stereo form or complex); doses refer to the form tested. Some entries were tested several times; the values are given in rising order. For survival time, the PubChem record calls one and a half times the control and up active, and a quarter to a half above the control has no call in these data; cut-offs in other NCI protocols can differ. Brackets with × stand for listed records that agree.

Test system: CD2F1 mice, L1210 leukemia ip, survival T/C
Assay: NCI In Vivo Anticancer Drug Screen. Data for tumor model L1210 Leukemia (intraperitoneal) in CD2F1 (CDF1) mice
Conditions: higher T/C = longer survival
Summary of the method: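 Antitumor effect is scored in animals hosting a serially transplanted tumor. Values compare compound-dosed animals against vehicle-only controls as a simple quotient.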

[1] = T/C endpoint: median survival time, dose: 50.0 mg/kg/injection, schedule: Q01DX009 (ip), vehicle: Klucel (hydroxypropylcellulose) (HPC)
[2] = T/C endpoint: median survival time, dose: 100.0 mg/kg/injection, schedule: Q01DX009 (ip), vehicle: Klucel (hydroxypropylcellulose) (HPC)

COc1ccc2[nH]c3ccc4cc[n+](CCN5CCC(C6CCN(CC[n+]7ccc8ccc9[nH]c%10ccc(OC)cc%10c9c8c7)CC6)CC5)cc4c3c2c1
T/C (T/C endpoint: median survival time, dose: 4.0 mg/kg/injection, schedule: Q01DX009 (ip), vehicle: water): 135 % of control
T/C (T/C endpoint: median survival time, dose: 6.25 mg/kg/injection, schedule: Q01DX009 (ip), vehicle: Klucel (hydroxypropylcellulose) (HPC)): 148, 160, 202, 246 % of control
T/C (T/C endpoint: median survival time, dose: 8.1 mg/kg/injection, schedule: Q01DX009 (ip), vehicle: water): 135 % of control
T/C (T/C endpoint: median survival time, dose: 12.5 mg/kg/injection, schedule: Q01DX009 (ip), vehicle: Klucel (hydroxypropylcellulose) (HPC)): 148, 151, 160 (2×), 191 % of control
T/C (T/C endpoint: median survival time, dose: 25.0 mg/kg/injection, schedule: Q01DX009 (ip), vehicle: Klucel (hydroxypropylcellulose) (HPC)): 145, 158, 160, 188, 197 % of control
T/C (T/C endpoint: median survival time, dose: 32.0 mg/kg/injection, schedule: Q01DX009 (ip), vehicle: water): 135 % of control
T/C [1]: 196, 271, 337 % of control
survivor count [1]: 0 of 6 and 2 of 6
survivor count (T/C endpoint: median survival time, dose: 64.0 mg/kg/injection, schedule: Q01DX009 (ip), vehicle: water): 0 of 6
survivor count (T/C endpoint: median survival time, dose: 65.0 mg/kg/injection, schedule: Q01DX009 (ip), vehicle: water): 2 of 6
T/C [2]: 116 and 164 % of control
survivor count [2]: 0 of 6
survivor count (T/C endpoint: median survival time, dose: 128.0 mg/kg/injection, schedule: Q01DX009 (ip), vehicle: water): 0 of 6
survivor count (T/C endpoint: median survival time, dose: 130.0 mg/kg/injection, schedule: Q01DX009 (ip), vehicle: water): 0 of 6
survivor count (T/C endpoint: median survival time, dose: 200.0 mg/kg/injection, schedule: Q01DX009 (ip), vehicle: Klucel (hydroxypropylcellulose) (HPC)): 0 of 6

CCOC(=O)CN1C(=O)C(Cl)=C(Cl)C1=O
survivor count (T/C endpoint: mean survival time, dose: 25.0 mg/kg/injection, schedule: Q04DX003 (ip), vehicle: saline with Tween-80): 0 of 6
survivor count (T/C endpoint: mean survival time, dose: 50.0 mg/kg/injection, schedule: Q04DX003 (ip), vehicle: saline with Tween-80): 0 of 6

O=CNc1cccc2ccc3cc4ccccc4cc3c12
survivor count (T/C endpoint: mean survival time, dose: 400.0 mg/kg/injection, schedule: Q04DX003 (ip), vehicle: saline with Tween-80): 2 of 6

ClC1CCC[N-]C1.ClC1CCC[N-]C1.[Cl][Pt+2][Cl] (centres undefined)
survivor count (T/C endpoint: mean survival time, dose: 12.5 mg/kg/injection, schedule: Q01DX009 (ip), vehicle: Klucel (hydroxypropylcellulose) (HPC)): 6 of 6
survivor count (T/C endpoint: mean survival time, dose: 25.0 mg/kg/injection, schedule: Q01DX009 (ip), vehicle: Klucel (hydroxypropylcellulose) (HPC)): 4 of 6
survivor count (T/C endpoint: mean survival time, dose: 50.0 mg/kg/injection, schedule: Q01DX009 (ip), vehicle: Klucel (hydroxypropylcellulose) (HPC)): 2 of 6
survivor count (T/C endpoint: mean survival time, dose: 100.0 mg/kg/injection, schedule: Q01DX009 (ip), vehicle: Klucel (hydroxypropylcellulose) (HPC)): 2 of 6
survivor count (T/C endpoint: mean survival time, dose: 200.0 mg/kg/injection, schedule: Q01DX009 (ip), vehicle: Klucel (hydroxypropylcellulose) (HPC)): 0 of 6
survivor count (T/C endpoint: mean survival time, dose: 200.0 mg/kg/injection, schedule: Q01DX009 (ip), vehicle: saline with Tween-80): 1 of 6

O=C(Cl)C12CC3CC(CC(C3)C1)C2
survivor count (T/C endpoint: mean survival time, dose: 200.0 mg/kg/injection, schedule: Q01DX009 (ip), vehicle: other): 4 of 5

Cn1cnc(C(=N)[Se])c1N
survivor count (T/C endpoint: mean survival time, dose: 12.5 mg/kg/injection, schedule: Q01DX005 (ip), vehicle: other): 3 of 6
survivor count (T/C endpoint: mean survival time, dose: 25.0 mg/kg/injection, schedule: Q01DX005 (ip), vehicle: other): 2 of 6
survivor count (T/C endpoint: mean survival time, dose: 50.0 mg/kg/injection, schedule: Q01DX005 (ip), vehicle: other): 0 of 6
survivor count (T/C endpoint: mean survival time, dose: 100.0 mg/kg/injection, schedule: Q01DX005 (ip), vehicle: other): 0 of 6
survivor count (T/C endpoint: mean survival time, dose: 200.0 mg/kg/injection, schedule: Q01DX005 (ip), vehicle: other): 0 of 6

CCN(CC)C(=S)SC
survivor count (T/C endpoint: mean survival time, dose: 300.0 mg/kg/injection, schedule: Q01DX001 (ip), vehicle: saline): 0 of 6

CSc1nc(Cl)cc(/N=C/N(C)C)n1
survivor count (T/C endpoint: mean survival time, dose: 400.0 mg/kg/injection, schedule: Q01DX009 (ip), vehicle: saline with Tween-80): 1 of 6

O=NC1C2CCC(C2)C1Cl (centres undefined)
survivor count (T/C endpoint: mean survival time, dose: 40.0 mg/kg/injection, schedule: Q01DX001 (ip), vehicle: saline): 3 of 6
survivor count (T/C endpoint: mean survival time, dose: 80.0 mg/kg/injection, schedule: Q01DX001 (ip), vehicle: saline): 0 of 6
survivor count (T/C endpoint: mean survival time, dose: 100.0 mg/kg/injection, schedule: Q01DX001 (ip), vehicle: saline): 0 of 6
survivor count (T/C endpoint: mean survival time, dose: 200.0 mg/kg/injection, schedule: Q01DX001 (ip), vehicle: saline): 0 of 6
survivor count (T/C endpoint: mean survival time, dose: 400.0 mg/kg/injection, schedule: Q01DX001 (ip), vehicle: saline): 0 of 6

CC1=C(N2CC2)C(=O)C2=C(C1=O)N1CC3C(N3C)C1(O)C2COC(N)=O (centres undefined)
T/C (T/C endpoint: mean survival time, dose: 2.33 mg/kg/injection, schedule: Q01DX001 (ip), vehicle: carboxymethylcellulose (CMC)): 127 % of control
T/C (T/C endpoint: mean survival time, dose: 3.5 mg/kg/injection, schedule: Q01DX001 (ip), vehicle: carboxymethylcellulose (CMC)): 135 % of control
